No constants are given. Whether binding was seen depends on the method and setting. In cells and extracts the contact can be indirect.
Molecular target: GFP-NleL (enterohemorrhagic Escherichia coli)
Assay: co-IP; cells (HEK293T) transiently expressing GFP constructs; anti-GFP IP (Chromotek), IP lysis buffer 10 mM Tris-HCl pH 7.5, 100 mM KCl, 2 mM MgCl2, 0.5% NP-40, 2 h at 4 °C; immunoblot for endogenous TRIM56 and TRIM65

Binder	binding
MBP-TRIM56 (natural protein, human, UniProt Q9BRZ2 1-755, looked up, TRIM56, human, full length, in pMAL-C2X; also called recombinant TRIM56; not shown: MBP, N-terminal, kept) MVSHGSSPSLLEALSSDFLACKICLEQLRAPKTLPCLHTYCQDCLAQLADGGRVRCPECRETVPVPPEGVASFKTNFFVNGLLDLVKARACGDLRAGKPACALCPLVGGTSTGGPATARCLDCADDLCQACADGHRCTRQTHTHRVVDLVGYRAGWYDEEARERQAAQCPQHPGEALRFLCQPCSQLLCRECRLDPHLDHPCLPLAEAVRARRPGLEGLLAGVDNNLVELEAARRVEKEALARLREQAARVGTQVEEAAEGVLRALLAQKQEVLGQLRAHVEAAEEAARERLAELEGREQVARAAAAFARRVLSLGREAEILSLEGAIAQRLRQLQGCPWAPGPAPCLLPQLELHPGLLDKNCHLLRLSFEEQQPQKDGGKDGAGTQGGEESQSRREDEPKTERQGGVQPQAGDGAQTPKEEKAQTTREEGAQTLEEDRAQTPHEDGGPQPHRGGRPNKKKKFKGRLKSISREPSPALGPNLDGSGLLPRPIFYCSFPTRMPGDKRSPRITGLCPFGPREILVADEQNRALKRFSLNGDYKGTVPVPEGCSPCSVAALQSAVAFSASARLYLINPNGEVQWRRALSLSQASHAVAALPSGDRVAVSVAGHVEVYNMEGSLATRFIPGGKASRGLRALVFLTTSPQGHFVGSDWQQNSVVICDGLGQVVGEYKGPGLHGCQPGSVSVDKKGYIFLTLREVNKVVILDPKGSLLGDFLTAYHGLEKPRVTTMVDGRYLVVSLSNGTIHIFRVRSPDS	no binding
endogenous TRIM65 (protein, UniProt Q6PJ69 1-517) MAAQLLEEKLTCAICLGLYQDPVTLPCGHNFCGACIRDWWDRCGKACPECREPFPDGAELRRNVALSGVLEVVRAGPARDPGPDPGPGPDPAARCPRHGRPLELFCRTEGRCVCSVCTVRECRLHERALLDAERLKREAQLRASLEVTQQQATQAEGQLLELRKQSSQIQNSACILASWVSGKFSSLLQALEIQHTTALRSIEVAKTQALAQARDEEQRLRVHLEAVARHGCRIRELLEQVDEQTFLQESQLLQPPGPLGPLTPLQWDEDQQLGDLKQLLSRLCGLLLEEGSHPGAPAKPVDLAPVEAPGPLAPVPSTVCPLRRKLWQNYRNLTFDPVSANRHFYLSRQDQQVKHCRQSRGPGGPGSFELWQVQCAQSFQAGHHYWEVRASDHSVTLGVSYPQLPRCRLGPHTDNIGRGPCSWGLCVQEDSLQAWHNGEAQRLPGVSGRLLGMDLDLASGCLTFYSLEPQTQPLYTFHALFNQPLTPVFWLLEGRTLTLCHQPGAVFPLGPQEEVLS	no binding
